According to article PMC5382271, “The conserved protein Seb1 drives transcription termination by binding RNA polymerase II and nascent RNA” (Nature Communications, 2017):

Molecular target: T1, SUMO-RRM F445A (Schizosaccharomyces pombe) (UniProt Q9UTE3)
T1 sequence (looked up): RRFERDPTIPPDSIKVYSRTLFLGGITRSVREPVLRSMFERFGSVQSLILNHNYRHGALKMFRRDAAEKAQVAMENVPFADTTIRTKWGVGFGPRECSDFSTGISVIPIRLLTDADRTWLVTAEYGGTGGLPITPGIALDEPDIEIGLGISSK
Assay: fluorescence anisotropy
Conditions: 25 mM Tris-HCl pH 8.0, 100 mM NaCl, 2 mM MgCl2, 1 mM DTT, 16.7% glycerol, 0.1% IGEPAL, 0.1 mg/ml tRNA, 2.5% RNasin, 25 C, 40 nM FAM-RNA; recombinant protein; residues 388-540; protein details: N-terminal His6-SUMO; label: 5'-FAM (printed FAM-AUUAGUAAAA)

For AUUAGUAAAA [FAM-AUUAGUAAAA RNA], the pKd was < 3.00.

pKd: −log10 of the molar value. Tags and fusion partners may be left off the protein sequences shown.
